Laboratory results published in publication PMC10368568.
These are yes or no findings as the source states them, for the method shown. Binding seen in cells or lysates may run through a third protein. Some entries that bind do so weakly or less than the wild type. One block for each binder: values may come before it.

By UniProt entry, the sequences of proteins in these tests, tags left out.
UniProt P15337: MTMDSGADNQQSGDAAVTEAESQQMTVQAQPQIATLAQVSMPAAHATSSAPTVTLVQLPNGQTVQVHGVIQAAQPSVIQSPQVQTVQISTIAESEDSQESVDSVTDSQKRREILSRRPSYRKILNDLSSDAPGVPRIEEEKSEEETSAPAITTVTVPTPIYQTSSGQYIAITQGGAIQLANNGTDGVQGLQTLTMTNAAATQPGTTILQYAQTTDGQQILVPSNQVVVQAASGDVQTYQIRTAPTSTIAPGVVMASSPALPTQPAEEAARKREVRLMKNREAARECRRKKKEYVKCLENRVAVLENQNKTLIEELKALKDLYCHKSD

What was measured:
[1] = target: T1, LaminB1 (rat (endogenous in hippocampal neurons)) (UniProt P70615); test: proximity ligation; Duolink PLA on fixed cultured rat hippocampal neurons (DIV15-16), endogenous proteins, rabbit and mouse primary antibodies; untreated or treated with ionomycin (1 uM, 1 min), NMDA (50 uM, 5 min) or 4AP/bicuculline (2.5 mM/50 uM, 5 min)
T1 sequence: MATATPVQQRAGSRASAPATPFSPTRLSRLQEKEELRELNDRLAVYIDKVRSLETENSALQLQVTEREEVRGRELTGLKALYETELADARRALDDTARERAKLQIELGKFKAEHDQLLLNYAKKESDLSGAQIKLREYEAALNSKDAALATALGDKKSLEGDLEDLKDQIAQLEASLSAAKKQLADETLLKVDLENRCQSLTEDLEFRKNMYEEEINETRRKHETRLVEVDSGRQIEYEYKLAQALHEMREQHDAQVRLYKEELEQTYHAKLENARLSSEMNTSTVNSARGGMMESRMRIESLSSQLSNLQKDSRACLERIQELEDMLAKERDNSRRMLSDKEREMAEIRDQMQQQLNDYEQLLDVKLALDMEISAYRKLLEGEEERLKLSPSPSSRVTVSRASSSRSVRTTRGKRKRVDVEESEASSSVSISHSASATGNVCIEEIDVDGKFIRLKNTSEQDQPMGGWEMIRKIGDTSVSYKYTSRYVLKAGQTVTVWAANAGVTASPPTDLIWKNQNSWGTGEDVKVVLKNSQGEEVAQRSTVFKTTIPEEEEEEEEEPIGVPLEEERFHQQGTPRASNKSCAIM

[2] = target: cAMP-responsive element-binding protein (CREB) (rat (endogenous in hippocampal neurons)) (UniProt P15337); test: proximity ligation; Duolink PLA on 40 um sections of acute rat hippocampal slices, CA1 pyramidal neurons, endogenous proteins; untreated or after bath NMDA (100 uM, 5 min) or theta burst stimulation (fixed 3 min after TBS)
[3] = target: T1, LaminB1 (rat (endogenous in hippocampal neurons)); test: as above
[4] = target: cAMP-responsive element-binding protein (CREB) (rat (endogenous in hippocampal neurons)) (UniProt P15337); test: proximity ligation; Duolink PLA on fixed cultured rat hippocampal neurons (DIV15-16), endogenous proteins, rabbit and mouse primary antibodies; untreated or treated with ionomycin (1 uM, 1 min), NMDA (50 uM, 5 min) or 4AP/bicuculline (2.5 mM/50 uM, 5 min)

binding [1]: binds
binding [2]: binds
binding [3]: binds
B1: Jacob (protein, UniProt Q9EPI6 1-532)
chain: MGAAASRRRALRSEAMSSVAAKVRAARAFGEYLSQSHPENRNGADHLLADAYSGHEGSPEMQPAPHNKRRLSLVSNGRYEGSISDEAVSGKTATEGPQPRVYTISREPALLPGSEAEAIELAVVKGRRQRERHPHHHSQPLRASPGSSREDISRPCQSWAGSRQGSKECPGCAKLVPGPSPRAFGLEQPPLPEASGRHKKLERMYSVDGVSDDVPIRTWFPKENPFSFQTATTTMQAISVFRGYAERKRRKRENDSASVIQRNFRKHLRMVGSRRVKAQTFAERRERSFSRSWSDPTPMKADTSHDSRDSSDLQSSHCTLDEACEDLDWDTEKGLEATACDTEGFLPPKVMLISSKVPKAEYIPTIIRRDDPSIIPILYDHEHATFEDILEEIEKKLNIYHKGAKIWKMLIFCQGGPGHLYLLKNKVATFAKVEKEEDMIHFWKRLSRLMSKVNPEPNVIHIMGCYILGNPNGEKLFQNLRTLMTPYKVTFESPLELSAQGKQMIETYFDFRLYRLWKSRQHSKLLDFDDVL

binding [4]: binds
binding [2]: binds
B2: pS180-Jacob (protein, UniProt Q9EPI6 1-532)
chain: B1 chain
modifications: phosphoserine at 180
